Test results taken from PubChem BioAssay AID248 (DTP/NCI, 2004).
The list shows only some results of the screen, not a fair sample: it is rich in T/C values a quarter to a half above the control, in often repeated tests (any T/C) and in doses without a T/C. Other doses and runs of a compound stand elsewhere. T/C is the treated group as % of the vehicle group. Some doses have a count of surviving animals in place of a T/C: the source holds a T/C of zero for them, seemingly a mark for toxic or unscored doses. Some survivor counts are full or nearly so, which does not show that the dose was tolerated: the source hardly ever lists a survival T/C far under the control, and the zero likely stands for such cases as well. Counts of survivors are from the toxicity check (mostly the fifth day) where no day follows; animals may have died later. Schedules are NCI's codes, taken here to give the interval after Q, in days (D) or hours (H), and the number of doses after X. Some schedules carry Z or #; the key to these is not given. Brackets with × give the number of equal values in this list. Where survival is the endpoint, the PubChem record calls one and a half times the control and up active, and a quarter to a half above the control has no call in these data; cut-offs in other NCI protocols can differ. Some doses were run more than once; the results are listed from low to high. Some T/C values carry the count of animals alive at the toxicity check (mostly the fifth day); without a count, all were alive then.

Tested on: L1210 leukemia ip in BDF1 mice, survival T/C
Test: NCI In Vivo Anticancer Drug Screen. Data for tumor model L1210 Leukemia (intraperitoneal) in B6D2F1 (BDF1) mice
Settings: T/C endpoint: mean survival time, higher T/C = longer survival
[1] = dose: 100.0 mg/kg/injection, schedule: Q04DX002 (ip), vehicle: saline with Tween-80
[2] = dose: 200.0 mg/kg/injection, schedule: Q04DX002 (ip), vehicle: saline with Tween-80
[3] = dose: 400.0 mg/kg/injection, schedule: Q01DX001 (ip), vehicle: carboxymethylcellulose (CMC)
[4] = dose: 400.0 mg/kg/injection, schedule: Q04DX003 (ip), vehicle: saline with Tween-80

OC1(C2C=CC=C2)c2ccccc2C=Cc2ccccc21
survivor count (dose: 75.0 mg/kg/injection, schedule: Q01DX001 (ip), vehicle: other): 0 of 6
survivor count (dose: 150.0 mg/kg/injection, schedule: Q01DX001 (ip), vehicle: other): 0 of 6
survivor count (dose: 300.0 mg/kg/injection, schedule: Q01DX001 (ip), vehicle: other): 0 of 6

CC(CNC(=O)CCBr)NC(=O)CCBr (centres undefined)
T/C (dose: 76.0 mg/kg/injection, schedule: Q01DX Z (ip), vehicle: carboxymethylcellulose (CMC)): 125 % of control
T/C (dose: 100.0 mg/kg/injection, schedule: Q01DX009 (ip), vehicle: saline): 135 % of control
T/C (dose: 113.0 mg/kg/injection, schedule: Q01DX Z (ip), vehicle: carboxymethylcellulose (CMC)): 134 % of control
T/C (dose: 170.0 mg/kg/injection, schedule: Q01DX Z (ip), vehicle: carboxymethylcellulose (CMC)): 148 % of control [5 of 6 alive]
survivor count (dose: 254.0 mg/kg/injection, schedule: Q01DX Z (ip), vehicle: carboxymethylcellulose (CMC)): 6 of 7

CCc1c(N)nc(N)nc1Nc1ccc(C)cc1
survivor count (dose: 25.0 mg/kg/injection, schedule: Q01DX Z (ip), vehicle: methylcellulose (MC)): 6 of 6
survivor count (dose: 50.0 mg/kg/injection, schedule: Q01DX Z (ip), vehicle: methylcellulose (MC)): 6 of 6
survivor count (dose: 100.0 mg/kg/injection, schedule: Q01DX Z (ip), vehicle: methylcellulose (MC)): 6 of 6
survivor count (dose: 200.0 mg/kg/injection, schedule: Q01DX Z (ip), vehicle: methylcellulose (MC)): 2 of 6

COc1ccc(Cl)cc1
survivor count (dose: 400.0 mg/kg/injection, schedule: Q01DX009 (ip), vehicle: saline with Tween-80): 4 of 6

CC(=O)Nc1ccc(NC(=S)NC(=O)COc2ccccc2)cc1
T/C [1]: 94, 98, 100 % of control
survivor count [1]: 6 of 6
T/C [2]: 86, 106, 107 % of control
survivor count [2]: 3 of 3
T/C (dose: 400.0 mg/kg/injection, schedule: Q04DX002 (ip), vehicle: saline with Tween-80): 91, 93, 94, 116 % of control

CN(N=O)C(=O)NC(=O)N(C)N=O
T/C (dose: 9.0 mg/kg/injection, schedule: Q01DX Z (ip), vehicle: carboxymethylcellulose (CMC)): 132 % of control [5 of 6 alive]
T/C (dose: 37.0 mg/kg/injection, schedule: Q01DX Z (ip), vehicle: carboxymethylcellulose (CMC)): 137 % of control
survivor count (dose: 100.0 mg/kg/injection, schedule: Q01DX Z (ip), vehicle: carboxymethylcellulose (CMC)): 5 of 6
survivor count (dose: 150.0 mg/kg/injection, schedule: Q01DX Z (ip), vehicle: carboxymethylcellulose (CMC)): 5 of 6
survivor count (dose: 200.0 mg/kg/injection, schedule: Q01DX Z (ip), vehicle: carboxymethylcellulose (CMC)): 0 of 6
survivor count (dose: 216.0 mg/kg/injection, schedule: Q01DX001 (ip), vehicle: carboxymethylcellulose (CMC)): 0 of 10
survivor count (dose: 432.0 mg/kg/injection, schedule: Q01DX001 (ip), vehicle: carboxymethylcellulose (CMC)): 0 of 10

CCOC(=O)C(=N\Nc1ccc(Cl)cc1Cl)/C(C)=N\NC(N)=S
survivor count (dose: 150.0 mg/kg/injection, schedule: Q01DX001 (ip), vehicle: saline): 6 of 6

O=C(NCCCCN1CC1)C(=O)Nc1ccccc1
survivor count (dose: 200.0 mg/kg/injection, schedule: Q04DX003 (ip), vehicle: Klucel (hydroxypropylcellulose) (HPC)): 2 of 6
survivor count (dose: 400.0 mg/kg/injection, schedule: Q04DX003 (ip), vehicle: Klucel (hydroxypropylcellulose) (HPC)): 0 of 6

NC(=O)C1(Nc2ccc(-c3ccc(NC4(C(N)=O)CCCC4)cc3)cc2)CCCC1
survivor count [3]: 4 of 4

O=C1C=CC(=C(c2ccccc2)c2ccccc2)C=C1
survivor count (dose: 75.0 mg/kg/injection, schedule: Q01DX009 (ip), vehicle: saline): 5 of 6
survivor count (dose: 150.0 mg/kg/injection, schedule: Q01DX009 (ip), vehicle: saline): 2 of 6
survivor count (dose: 300.0 mg/kg/injection, schedule: Q04DX003 (ip), vehicle: saline): 2 of 6

C1CCN(NC2=NCCO2)CC1
survivor count (dose: 50.0 mg/kg/injection, schedule: Q01DX009 (ip), vehicle: saline): 6 of 6
survivor count (dose: 200.0 mg/kg/injection, schedule: Q01DX009 (ip), vehicle: saline): 5 of 6
survivor count (dose: 400.0 mg/kg/injection, schedule: Q01DX009 (ip), vehicle: saline): 0 of 6

CCOc1ccc(/C=N/Nc2ccc([N+](=O)[O-])cc2)cc1OC
survivor count (dose: 100.0 mg/kg/injection, schedule: Q04DX003 (ip), vehicle: saline sonified): 6 of 6
survivor count (dose: 200.0 mg/kg/injection, schedule: Q04DX003 (ip), vehicle: saline sonified): 6 of 6

CC(NC1=NCCO1)c1cccc2ccccc12 (centres undefined)
survivor count (dose: 100.0 mg/kg/injection, schedule: Q01DX009 (ip), vehicle: saline with Tween-80): 2 of 6

CCCOP(=O)(OCCC)C(OC(=O)C(C)(C)C)=C(C)C
survivor count [4]: 0 of 6

OCC1(CO)CC=CCC1
survivor count (dose: 200.0 mg/kg/injection, schedule: Q04DX003 (ip), vehicle: saline): 6 of 6
survivor count (dose: 400.0 mg/kg/injection, schedule: Q04DX003 (ip), vehicle: saline): 6 of 6

c1cc(CCCc2ccncc2)ccn1
survivor count (dose: 100.0 mg/kg/injection, schedule: Q04DX002 (ip), vehicle: saline): 2 of 3
survivor count (dose: 200.0 mg/kg/injection, schedule: Q04DX002 (ip), vehicle: saline): 2 of 3
survivor count (dose: 400.0 mg/kg/injection, schedule: Q04DX002 (ip), vehicle: saline): 0 of 3

COc1cc(C(=O)CO)cc(OC)c1OC(C)=O
survivor count (dose: 100.0 mg/kg/injection, schedule: Q01DX001 (ip), vehicle: saline): 4 of 4
survivor count (dose: 200.0 mg/kg/injection, schedule: Q01DX001 (ip), vehicle: saline): 4 of 4
survivor count (dose: 400.0 mg/kg/injection, schedule: Q01DX001 (ip), vehicle: saline): 4 of 4

FC(F)(F)c1nc2nc(Br)c(Br)nc2[nH]1
T/C (dose: 200.0 mg/kg/injection, schedule: Q04DX003 (ip), vehicle: saline with Tween-80): 138 % of control [5 of 6 alive]
T/C [4]: 126 % of control [4 of 6 alive]
survivor count [4]: 1 of 6 (2×)
survivor count (dose: 600.0 mg/kg/injection, schedule: Q04DX003 (ip), vehicle: saline with Tween-80): 0 of 6

CCCNC(C)(C)C(SSS)c1cccs1 (centres undefined)
survivor count (dose: 400.0 mg/kg/injection, schedule: Q04DX003 (ip), vehicle: alcohol): 4 of 6

C[N+]1(N[P+](=O)NN2CCCCC2)CCCCC1 (centres undefined)
survivor count [3]: 0 of 6

NC(CS)=NCC1C2CC3CC(C2)CC1C3 (centres undefined)
survivor count (dose: 100.0 mg/kg/injection, schedule: Q04DX002 (ip), vehicle: Klucel (hydroxypropylcellulose) (HPC)): 0 of 3
survivor count (dose: 200.0 mg/kg/injection, schedule: Q04DX002 (ip), vehicle: Klucel (hydroxypropylcellulose) (HPC)): 0 of 3
survivor count (dose: 400.0 mg/kg/injection, schedule: Q04DX002 (ip), vehicle: Klucel (hydroxypropylcellulose) (HPC)): 0 of 3

CC(C)c1nc2c(=O)[nH]cnc2o1
survivor count (dose: 50.0 mg/kg/injection, schedule: Q01DX005 (ip), vehicle: saline): 1 of 3
survivor count (dose: 400.0 mg/kg/injection, schedule: Q01DX005 (ip), vehicle: saline): 1 of 3

Cc1cc(S(=O)(=O)F)ccc1NC(=O)/C=C/c1ccc([N+](=O)[O-])cc1
survivor count (dose: 200.0 mg/kg/injection, schedule: Q01DX009 (ip), vehicle: Klucel (hydroxypropylcellulose) (HPC)): 6 of 6
